From patent US20170283486A1 (UNIVERSITY OF MARYLAND BALTIMORE, published 2017)

Target: mAb N60-i3
Assay: cell-based or functional assay

B1: inner domain immunogen ID2 (designed binder)
chain: VPVWKDADTTLFCASDAKAHETECHNVWATHACVPTDPNPQEIHLENVTENFNMWKNNMVEQMQEDVISLWDQCLQPGGAPKISFDPIPIHYCTPAGYVILKCNDKNFNGTGPCKNVSSVQCTHGIKPVVSSGGGNIKDNWRSELYKYKVVQIE
modifications: engineered C65-C115 disulfide bond (HXBc2 numbering); 8 cysteines forming four disulfide bonds
  IC50 (read off the curve): ~0.2 nM
